From paper PMC10761072, “Post-transcriptional capping generates coenzyme A-linked RNA” (RNA Biology, 2023)

Amino acid sequences for entries named in this document (tags omitted). A change or cut given only in a name is not applied to a line headed by its entry.
UniProt P0A6I6: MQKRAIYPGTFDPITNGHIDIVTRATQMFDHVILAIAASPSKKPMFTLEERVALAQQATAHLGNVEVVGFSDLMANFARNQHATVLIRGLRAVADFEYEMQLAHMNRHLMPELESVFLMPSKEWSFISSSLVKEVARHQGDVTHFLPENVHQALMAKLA

Target: PPAT (phosphopantetheine adenylyltransferase, CoaD) (Escherichia coli) (UniProt P0A6I6)
Test: filter binding
Conditions: 20 mM Tris pH 7.5, 100 mM NaCl, 10 mM KCl, 1 mM MgCl2, 37 C, 15 min, trace refolded radiolabelled RNA, nitrocellulose filters, recombinant protein, label: 3'-end 32P-dC extension

“AGGACCAGAGCAGACGAUUCGUCACACGUCCUGCUCUCGGCUGGAAACACGUAAUCAUCAUCGAGCUGGCAGUCGCAAAAAACCCCGCUUCGGCGGGGUUUUUUCGC [D7* RNA]”: binds (PPAT titration, no significant difference from D2*).

AGGACCAGUGCGAAAGCACACA [D7 5'OH RNA]: binds (1 or 3 uM PPAT, binding not reduced vs D7, 5'-OH instead of 5' triphosphate).

“AGGAGCAGACGAUUCGUCACACGUCCUGCUCUCGGCUGGAAACUACUCAUCAUCAUCGAGCUGGCAGUCGCAAAAAACCCCGCUUCGGCGGGGUUUUUUCGC [D2* RNA]”: binds (PPAT titration, no significant difference from D7*).

Construct, isoform or probe ends are uncertain for at least one entry.
